For two substances, binding results are on record in paper PMC12230637.

Amino acid sequences for entries named in this document (tags omitted).
UniProt Q8ND56: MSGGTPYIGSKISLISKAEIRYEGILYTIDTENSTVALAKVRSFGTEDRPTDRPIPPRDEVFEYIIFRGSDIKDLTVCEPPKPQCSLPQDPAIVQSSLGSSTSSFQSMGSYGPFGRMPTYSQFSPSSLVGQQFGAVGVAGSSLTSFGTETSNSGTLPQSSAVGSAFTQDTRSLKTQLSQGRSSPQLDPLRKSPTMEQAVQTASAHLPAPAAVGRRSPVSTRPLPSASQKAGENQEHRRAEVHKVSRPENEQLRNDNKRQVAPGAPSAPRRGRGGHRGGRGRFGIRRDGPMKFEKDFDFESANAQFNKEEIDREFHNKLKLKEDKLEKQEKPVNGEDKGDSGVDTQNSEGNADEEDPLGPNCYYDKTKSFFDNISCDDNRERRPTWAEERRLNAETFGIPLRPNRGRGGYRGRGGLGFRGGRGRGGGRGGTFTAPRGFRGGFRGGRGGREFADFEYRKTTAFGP
UniProt O00425: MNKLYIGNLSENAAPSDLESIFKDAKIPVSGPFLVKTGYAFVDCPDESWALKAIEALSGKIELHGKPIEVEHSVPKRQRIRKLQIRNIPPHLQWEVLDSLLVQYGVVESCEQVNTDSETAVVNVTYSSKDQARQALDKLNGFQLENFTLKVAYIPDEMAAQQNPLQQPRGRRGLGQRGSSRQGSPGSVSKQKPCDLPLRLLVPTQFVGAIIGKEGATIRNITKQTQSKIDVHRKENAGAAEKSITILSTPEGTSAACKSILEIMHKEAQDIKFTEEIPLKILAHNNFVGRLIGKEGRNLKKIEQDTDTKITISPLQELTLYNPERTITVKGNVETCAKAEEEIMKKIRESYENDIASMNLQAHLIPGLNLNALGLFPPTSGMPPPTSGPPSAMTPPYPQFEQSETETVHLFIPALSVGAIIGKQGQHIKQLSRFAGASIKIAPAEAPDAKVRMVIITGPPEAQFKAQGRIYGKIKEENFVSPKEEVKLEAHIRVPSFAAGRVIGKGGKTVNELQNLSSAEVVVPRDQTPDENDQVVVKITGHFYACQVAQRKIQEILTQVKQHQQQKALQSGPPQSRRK

In this assay the target is T1, PATL1 (human (endogenous in A549)) (UniProt Q86TB9).
T1 sequence: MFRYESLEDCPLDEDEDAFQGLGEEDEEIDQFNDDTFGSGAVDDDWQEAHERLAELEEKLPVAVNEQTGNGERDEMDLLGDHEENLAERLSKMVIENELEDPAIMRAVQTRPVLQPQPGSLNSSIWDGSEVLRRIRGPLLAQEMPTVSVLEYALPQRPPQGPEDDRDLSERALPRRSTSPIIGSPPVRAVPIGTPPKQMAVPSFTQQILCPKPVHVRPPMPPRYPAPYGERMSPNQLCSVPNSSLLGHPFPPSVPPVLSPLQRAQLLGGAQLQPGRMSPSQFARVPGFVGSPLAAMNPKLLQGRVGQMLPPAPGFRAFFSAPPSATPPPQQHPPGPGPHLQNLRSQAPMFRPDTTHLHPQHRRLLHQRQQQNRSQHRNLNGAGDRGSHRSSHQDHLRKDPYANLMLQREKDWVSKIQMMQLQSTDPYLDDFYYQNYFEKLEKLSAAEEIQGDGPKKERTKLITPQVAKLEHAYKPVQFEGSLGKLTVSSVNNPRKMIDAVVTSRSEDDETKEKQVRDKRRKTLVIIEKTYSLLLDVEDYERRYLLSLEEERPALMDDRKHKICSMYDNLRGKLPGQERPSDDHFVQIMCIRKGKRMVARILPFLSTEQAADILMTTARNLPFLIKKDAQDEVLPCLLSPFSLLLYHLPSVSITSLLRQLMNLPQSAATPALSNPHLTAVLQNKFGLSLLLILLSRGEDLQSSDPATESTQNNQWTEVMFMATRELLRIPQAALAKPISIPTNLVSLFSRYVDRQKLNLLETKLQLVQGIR
The experiment in a line: co-IP; lysates of A549 cells immunoprecipitated with an antibody against PATL1, western blot analysis of the precipitate. For orientation: A western blot detects proteins with antibodies after separation by electrophoresis.

Results are given in words; binding and its absence hold for the method and conditions named. In cells and extracts the contact can be indirect. Some entries that bind do so weakly or less than the wild type.

Take LSM14A (from UniProt Q8ND56 1-463): the binding entry is “binds”.

As for “Insulin-like growth factor 2 mRNA-binding protein 3 (IMP3) (from UniProt O00425 1-579)”, the binding entry was “binds”.
